Where “and” joins values, the source holds several entries; their conditions need not be identical. Equal entries are not always repeated. This is one part of the list. Several reference drugs read as weak here; read low effects with care.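 Human mesenchymal stem cells lacking the Werner syndrome gene, which age prematurely, were used. Automated live-cell imaging tracked growth across three biological repeats; the twenty drugs raising growth most relative to vehicle advanced, without a stated fixed cutoff.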
Tested on: Werner syndrome hMSCs (WRN-/-)
Assay: relative cell density (fold change vs vehicle control); higher = more proliferation (geroprotective)
Settings: concentration (umol/L): 1, 6 days

Compound | relative cell density (vehicle: DMSO) | relative cell density (vehicle: Water)
FC(F)(F)c1ccc(/C=C/c2nc(COc3ccc(CCCCn4ccnn4)cc3)co2)cc1 | 1.08 | –
CC(Oc1cc(-c2cnn(C3CCNCC3)c2)cnc1N)c1c(Cl)ccc(F)c1Cl (configuration not stated) | 1.27 | –
Nc1ccn(C[C@@H](CO)OCP(=O)(O)O)c(=O)n1 | – | 0.753
CCCCC(=O)O[C@]1(C(=O)CO)[C@@H](C)C[C@H]2[C@@H]3CCC4=CC(=O)C=C[C@]4(C)[C@@]3(F)[C@@H](O)C[C@@]21C | 1.18 | –
CC(=O)OCC(=O)[C@@]1(O)CC[C@H]2[C@@H]3CCC4=CC(=O)CC[C@]4(C)[C@H]3C(=O)C[C@@]21C | 1.03 | –
OC[C@@H](O)[C@@H](O)[C@H](O)[C@@H](O)CO | 1.01 | –
NC(=O)[C@@H]1CC[C@@H]2CN1C(=O)N2OS(=O)(=O)O | 1.02 | –
Oc1ccc(O)cc1 | 1.39 | –
COc1cc2nc(N3CCN(C(=O)C4CCCO4)CC3)nc(N)c2cc1OC (configuration not stated) | 1.23 and 1.18 | –
COc1ccc(C=Cc2cc(OC)c(OC)c(OC)c2)cc1OP(=O)(O)O | – | 0.32
CC(C)OC(=O)CCC/C=C\C[C@@H]1[C@@H](CC[C@@H](O)CCc2ccccc2)[C@H](O)C[C@@H]1O | – | 0.793
COc1cc(C)c(/C=C/C(C)=C/C=C/C(C)=C/C(=O)O)c(C)c1C | 0.799 | –
O=c1[nH]c(=O)n([C@H]2C[C@H](O)[C@@H](CO)O2)cc1F | 1.14 | –
CNNCc1ccc(C(=O)NC(C)C)cc1 | – | 0.99
C[N+]1(C)CCC(=C(c2ccccc2)c2ccccc2)CC1 | 0.994 | –
CN(C)CCC=C1c2ccccc2C=Cc2ccccc21 | 1.04 | –
CN(C)CCc1c[nH]c2ccc(C[C@H]3COC(=O)N3)cc12 | 1.05 | –
NC(=O)c1ncn([C@@H]2O[C@H](CO)[C@@H](O)[C@H]2O)c1N | 1.01 | –
CC(c1cc2ccccc2s1)N(O)C(N)=O (configuration not stated) | 1.12 | –
CN(C)CCCN1c2ccccc2CCc2ccc(Cl)cc21 | 1 | –
Nc1ccc(O)c(C(=O)O)c1 | 1.03 | –
CC(C)NC[C@H](O)COc1ccc(CCOCC2CC2)cc1 | 1.15 | –
CCCCCCCC(=O)N[C@H](CN1CCCC1)[C@H](O)c1ccc2c(c1)OCCO2 | 0.997 | –

Compound | relative cell density (vehicle: DMSO) | relative cell density (vehicle: Water)
COC(=O)C1=C(C)NC(C)=C(C(=O)OC)C1c1ccccc1[N+](=O)[O-] | 0.973 | –
C#C[C@]1(O)CC[C@H]2[C@@H]3CCC4=CC(=O)CC[C@@H]4[C@H]3CC[C@@]21C | 0.878 | –
C=CCc1cc(OC)c(O)c(C(=O)NCCO)c1 | 1.17 | –
Nc1ccc(S(=O)(=O)Nc2ncccn2)cc1 | 1.23 and 1.04 | –
C#C[C@]1(OC(C)=O)CC[C@H]2[C@@H]3CCC4=C[C@@H](OC(C)=O)CC[C@@H]4[C@H]3CC[C@@]21C | 0.144 | –
O=C1C(CC[S+]([O-])c2ccccc2)C(=O)N(c2ccccc2)N1c1ccccc1 (configuration not stated) | 1.25 | –
C[C@@H]1CC(=O)NN=C1c1ccc(NN=C(C#N)C#N)cc1 | 1.17 | –
O=C(Nc1cc(Cl)cc(Cl)c1O)c1c(O)c(Cl)cc(Cl)c1Cl | 1.11 | –
O=C(O)Cc1ccccc1Nc1c(Cl)cccc1Cl | 0.96 and 0.817 and 1.2 | –
C[C@@H](c1ncncc1F)[C@](O)(Cn1cncn1)c1ccc(F)cc1F | 1.43 | –
O=c1[nH]cc(F)c(=O)[nH]1 | 1.11 | –
C[C@]12C=CC(=O)C=C1CC[C@@H]1[C@@H]2[C@@H](O)C[C@@]2(C)[C@H]1CC[C@]2(O)C(=O)CO | 1.03 | –
CS(=O)(=O)c1ccc([C@@H](O)[C@@H](CO)NC(=O)C(Cl)Cl)cc1 | 1.22 | –
Cc1cncc(CN2CCC(=C3c4ccc(Cl)cc4CCc4cccnc43)CC2)c1 | 0.928 | –
CC(=O)Oc1cc(C(F)(F)F)ccc1C(=O)O | 1.07 | –
CNC(=O)c1ccc2cc([C@@]3(O)CCn4cncc43)ccc2c1 | 1.05 | –
CNC(=C[N+](=O)[O-])NCCSCc1ccc(CN(C)C)o1 | 1.09 | –
O=c1c(-c2ccc(O)cc2)coc2cc(O)cc(O)c12 | 1.04 | –
N[C@@H]1CN(c2c(F)cc3c(=O)c(C(=O)O)cn([C@@H]4C[C@@H]4F)c3c2Cl)CC12CC2 | – | 0.79
CNC[C@H](O)c1cccc(O)c1 | 1.3 | –
CCC(=O)NS(=O)(=O)c1ccc(-c2c(-c3ccccc3)noc2C)cc1 | 1.25 | –
N#C[C@@H]1CCCN1C(=O)CNC12CC3CC(CC(O)(C3)C1)C2 | 1 | –
CC(C)(CO)[C@@H](O)C(=O)NCCCO | 0.955 | –

Sorted by SMILES length (low to high): 12 of the compounds above
Compound | relative cell density (vehicle: DMSO) | relative cell density (vehicle: Water)
O=c1[nH]cc(F)c(=O)[nH]1 | 1.11 | –
CC(C)(CO)[C@@H](O)C(=O)NCCCO | 0.955 | –
O=c1c(-c2ccc(O)cc2)coc2cc(O)cc(O)c12 | 1.04 | –
C[C@@H]1CC(=O)NN=C1c1ccc(NN=C(C#N)C#N)cc1 | 1.17 | –
O=C(Nc1cc(Cl)cc(Cl)c1O)c1c(O)c(Cl)cc(Cl)c1Cl | 1.11 | –
C[C@@H](c1ncncc1F)[C@](O)(Cn1cncn1)c1ccc(F)cc1F | 1.43 | –
Cc1cncc(CN2CCC(=C3c4ccc(Cl)cc4CCc4cccnc43)CC2)c1 | 0.928 | –
COC(=O)C1=C(C)NC(C)=C(C(=O)OC)C1c1ccccc1[N+](=O)[O-] | 0.973 | –
O=C1C(CC[S+]([O-])c2ccccc2)C(=O)N(c2ccccc2)N1c1ccccc1 (configuration not stated) | 1.25 | –
C#C[C@]1(O)CC[C@H]2[C@@H]3CCC4=CC(=O)CC[C@@H]4[C@H]3CC[C@@]21C | 0.878 | –
N[C@@H]1CN(c2c(F)cc3c(=O)c(C(=O)O)cn([C@@H]4C[C@@H]4F)c3c2Cl)CC12CC2 | – | 0.79
C[C@]12C=CC(=O)C=C1CC[C@@H]1[C@@H]2[C@@H](O)C[C@@]2(C)[C@H]1CC[C@]2(O)C(=O)CO | 1.03 | –

Continued.

Compound | relative cell density (vehicle: DMSO) | relative cell density (vehicle: Water)
CC(C)C[C@H](NC(=O)CNC(=O)c1cc(Cl)ccc1Cl)B(O)O | 0.265 | –
NS(=O)(=O)c1ccc(C(=O)O)cc1 | 1.27 | –
CO[C@H]1C[C@@H]2CC[C@@H](C)[C@@](O)(O2)C(=O)C(=O)N2CCCC[C@H]2C(=O)O[C@H]([C@H](C)C[C@@H]2CC[C@@H](O)[C@H](OC)C2)CC(=O)[C@H](C)/C=C(\C)[C@@H](O)[C@@H](OC)C(=O)[C@H](C)C[C@H](C)/C=C/C=C/C=C/1C | 0.672 | –
Cc1[nH]c(/C=C2\C(=O)Nc3ccccc32)c(C)c1CCC(=O)O | 0.886 | –
CN(CCOc1ccc(NS(C)(=O)=O)cc1)CCc1ccc(NS(C)(=O)=O)cc1 | 1.2 | –
CC(=O)N1CCN(c2ccc(OCC3COC(Cn4ccnc4)(c4ccc(Cl)cc4Cl)O3)cc2)CC1 (configuration not stated) | – | 1.13
CC(C)NCC(O)c1ccc(NS(C)(=O)=O)cc1 (configuration not stated) | 1.29 | –
C#C[C@]1(O)CC[C@H]2[C@@H]3CCc4cc(OC)ccc4[C@H]3CC[C@@]21C | 1.2 | –
C1=N/C2=N/c3ccc(OCCN4CCCC4)c(c3)COC/C=C/COCc3cccc(c3)C(=C1)N2 | 0.503 | –
COc1ccc2cccc(CCNC(C)=O)c2c1 | 0.998 | –
O=C(O)P(=O)(O)O | 0.98 | –
Cc1nc(C)c(Cl)c(O)c1Cl | – | 1.17
CCn1cc(C(=O)O)c(=O)c2cc(F)c(N3CCNCC3)nc21 | 1.15 and 1.06 | –
CC(=O)OCC(=O)NCCCOc1cccc(CN2CCCCC2)c1 | 1.21 | –
C[C@H](NCc1ccc(OCc2cccc(F)c2)cc1)C(N)=O | 1.34 | –
OC[C@@H](O)[C@@H](O)[C@H](O)[C@H](O)CO | 1.23 | –
Oc1ccc(C2CNCCc3c2cc(O)c(O)c3Cl)cc1 (configuration not stated) | 1.37 | –
CC(C(=O)O)c1cccc(Oc2ccccc2)c1 (configuration not stated) | 1.6 and 1.13 | –
CCCc1ncc(C[n+]2ccccc2C)c(N)n1 | – | 0.94
Nc1ccc(S(=O)(=O)NC(=O)c2ccccc2)cc1 | 1.39 | –
C[N+](C)(C)CCOP(=O)(O)OP(=O)([O-])OC[C@H]1O[C@@H](n2ccc(N)nc2=O)[C@H](O)[C@@H]1O | – | 0.968
